Assay results published in PubChem BioAssay AID493014 (National Center for Advancing Translational Sciences (NCATS), 2011).
The list shows a part of the results. These are further read-outs of the screen, such as a control signal, another cell line or another target. No call is given for them. The list favours compounds with an active or inconclusive main result. Potencies come from curve fits of mixed quality, noted in brackets.

Assay: qHTS Assay to Find Inhibitors of Chronic Active B-Cell Receptor Signaling
Conditions: ABC-DLBCL IkBa-CBG/CBR reporter, luminescence ratio (green luciferase fused to IkBa over red control in TMD8 lymphoma cells), 4 h
In short: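 Compounds up to 46 uM were incubated four hours with TMD8 cells whose green CBG68 luciferase is fused to IkappaBalpha; red CBR luminescence normalised the signal, and concentration-effect curves were fitted to fusion, red and ratio data.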

[1] = measured here: CBR red luminescence, cell number
[2] = measured here: IkBa-CBG green luminescence

SMILES | AC50 [1] | AC50 [2]
N#CC1=C(SCc2ccccc2)NC(=O)CC1c1ccc(O)cc1 (configuration not stated) | 32.6 µM [falling, single point] | –
Cc1ccc(CC(=O)Nc2ccc(F)c([N+](=O)[O-])c2)cc1 | 8.2 µM [rising, partial curve, poor fit] | –
Cc1ccc(C(=O)NCCc2cccs2)cc1 | 4.47 µM [falling, partial curve] | –
CSc1nc(N(C)C)nc(N(C#N)CCOC(C)=O)n1 | 7.94 µM [rising, partial curve, poor fit] | –
CN(CC(=O)Nc1ccc(Cl)c(C(F)(F)F)c1)C(=O)CCN1C(=O)C2CCCCC2C1=O (configuration not stated) | 32.6 µM [falling, partial curve, poor fit] | –
CC(C)Cc1ccc(CN2CCCC(NC(=O)c3cccc(-n4cnnc4)c3)C2)cc1 (configuration not stated) | 35.5 µM [falling, single point] | –
CC(=O)Nc1ccc2sccc2c1 | 14.1 µM [rising, single point] | –
CCC(=O)Oc1ccc(C(=O)Nc2cccc(C(=O)NC(C)(C)C)c2)cc1 | 35.5 µM [falling, single point] | –
Cc1cc(C)n2ncc(C(=O)Nc3ccc(Cl)c(Cl)c3)c2n1 | 0.794 µM [rising, full curve, poor fit] | –
N#C/C(=C/c1cn(CC(=O)O)c2ccccc12)C(=O)NCc1ccccc1 | 28.2 µM [falling, partial curve, poor fit] | –
O=C(CSc1nnnn1-c1ccc(F)cc1)NNC(=O)c1ccco1 | 1.41 µM [rising, full curve] | –
Cc1cc(C(=O)COc2ccc(Br)cc2F)c(C)n1C1CC1 | 5.17 µM [rising, single point] | –
N#Cc1ccc(NC(=O)Nc2ccc(Oc3ccc(NC(=O)Nc4ccc(C#N)cc4)cc3)cc2)cc1 | 11.2 µM [falling, partial curve, poor fit] | –
COc1ccc(-c2cc(=O)c3c(OC)c(OC)c(OC)c(OC)c3o2)cc1OC | 0.0259 µM [rising, full curve, poor fit] | –
COC(=O)CC1=C(C(=O)OC)C(c2ccncc2)C(C#N)=C(N)O1 (configuration not stated) | 3.26 µM [falling, partial curve, poor fit] | –
COc1cc(C(=O)NC2CCN(Cc3nnnn3Cc3ccc(F)cc3)CC2)cc(OC)c1OC | 6.31 µM [rising, full curve, poor fit] | 11.2 µM [falling, partial curve]
CC(OC(=O)c1ccccc1Br)C(=O)Nc1nc(-c2cccc([N+](=O)[O-])c2)cs1 (configuration not stated) | 23.1 µM [rising, partial curve, poor fit] | –
O=C(COc1ccc(Br)cc1Cl)NC1CCCCC1 | 0.731 µM [rising, full curve] | –
Nc1nonc1-n1nnc(C(=O)N/N=C/c2ccccc2)c1CN1CCc2ccccc21 | 28.2 µM [rising, single point] | –
O=c1cc(N2CCOCC2)c2ccccc2o1 | 0.92 µM [falling, full curve, poor fit] | –
Oc1ccc(Cl)cc1CNCc1ccc(C(F)(F)F)cc1 | 5.17 µM [rising, partial curve] | –
O=C(CSC1=NC(=O)C(Cc2ccccc2)C(=O)N1)Nc1ncccn1 (configuration not stated) | 12.6 µM [rising, partial curve, poor fit] | –

SMILES | AC50 [1] | AC50 [2]
CCOC(=O)C1CCN(C(=O)CCC(=O)NCCc2ccc(Cl)cc2)CC1 | 35.5 µM [rising, partial curve, poor fit] | –
COc1ccc(C(C)NC(=O)c2ccoc2C)cc1OC (configuration not stated) | 29.1 µM [falling, single point] | 32.6 µM [rising, partial curve, poor fit]
Oc1ccccc1/C=N/NC(=S)NC1CC2CCC1C2 (configuration not stated) | 0.891 µM [falling, full curve, poor fit] | –
COc1ccc(NC(=O)Nc2cc(C)ccc2F)cc1OC | 22.4 µM [falling, single point] | –
O=C(CSc1ncccc1C(=O)O)c1ccc2ccccc2c1 | 1.58 µM [rising, partial curve, poor fit] | 7.08 µM [falling, partial curve, poor fit]
Cc1nc(NC(=O)/C=C/c2ccccc2)sc1C(=O)Nc1ccccc1Cl | 0.447 µM [falling, full curve] | –
CN(Cc1ccon1)Cc1cn(C)nc1-c1ccc(Oc2ccccc2)cc1 | 17.8 µM [rising, partial curve, poor fit] | –
CCCCCCn1cnc2c(c1=O)c1nc3ccccc3nc1n2/N=C/c1ccco1 | 5.01 µM [falling, partial curve, poor fit] | –
Clc1ccc(Cl)c(OCCCCN2CCNCC2)c1 | 15.8 µM [falling, single point] | –
CCc1nn(CCCC(=O)N2CCN(c3ccc(OC)cc3)CC2)c(=O)c2cc3occc3n12 | 2.82 µM [rising, full curve, poor fit] | –
CCCCNc1c(-c2ccc(-c3ccc(C(C)=O)cc3)c(OC)c2)nc2cnccn12 | 32.6 µM [falling, single point] | –
CC(NC(=O)c1ccccc1Cl)C(=O)OCc1cn2cc(Cl)ccc2n1 (configuration not stated) | 9.2 µM [rising, partial curve] | –
O=C(Nc1cccc(Cl)c1)c1cc(-c2ccccc2)on1 | 5.62 µM [falling, partial curve] | –
CC(C)C(=O)Nc1ccc2c(c1)nc(CCN1CCN(c3ccccn3)CC1)n2C | 35.5 µM [falling, single point] | –
O=C(c1cc2ccccc2o1)c1cccs1 | 1.46 µM [rising, partial curve, poor fit] | –
COc1cc2c(=O)c(-c3ccc(O)cc3)coc2cc1OC1OC(CO)C(O)C(O)C1O (configuration not stated) | 29.1 µM [rising, single point] | –
CCCc1cc(=O)oc2c(C)c(OCC(=O)N3CCC(C(=O)O)(c4ccccc4)CC3)ccc12 | 0.708 µM [falling, partial curve, poor fit] | –
CNc1ccc(/C=C(\C#N)C(=O)Nc2ccccn2)cc1[N+](=O)[O-] | 35.5 µM [rising, single point] | –
CCN(CC)c1ccc(/C=N/NC(=O)CNC(=O)c2ccc3c(c2)OCCO3)cc1 | 12.6 µM [falling, single point] | –
C/C(=N\NC(=O)c1ccoc1C)c1cccnc1 | 25.9 µM [falling, single point] | –
C/C(N)=C(/C#N)C(=O)CSc1nc2ccc(C)cc2[nH]1 | 2 µM [falling, full curve] | –
CCc1ccc(OCC(=O)NCc2ccco2)c(Br)c1 | 2.24 µM [rising, partial curve, poor fit] | –

Single entries from the results shown:
COc1cc2c(=O)c(-c3ccc(O)cc3)coc2cc1OC1OC(CO)C(O)C(O)C1O (configuration not stated) – AC50 [1]: 29.1 µM [rising, single point]
C/C(=N\NC(=O)c1ccoc1C)c1cccnc1 – AC50 [1]: 25.9 µM [falling, single point]
COc1ccc(C(C)NC(=O)c2ccoc2C)cc1OC (configuration not stated) – AC50 [2]: 32.6 µM [rising, partial curve, poor fit]
Clc1ccc(Cl)c(OCCCCN2CCNCC2)c1 – AC50 [1]: 15.8 µM [falling, single point]
CCCCNc1c(-c2ccc(-c3ccc(C(C)=O)cc3)c(OC)c2)nc2cnccn12 – AC50 [1]: 32.6 µM [falling, single point]

Following part.

SMILES | AC50 [1] | AC50 [2]
CCC(C)Nc1nc(-c2ccc3c(c2)NC(=O)CO3)cs1 (configuration not stated) | 14.1 µM [rising, partial curve, poor fit] | –
O=C(Nc1ccc(N2CCOCC2)cc1)c1cnsn1 | 14.6 µM [falling, partial curve, poor fit] | –
Cc1ccc(NC(=O)C(=O)NCc2ccccn2)cc1 | 8.91 µM [falling, partial curve, poor fit] | –
Cc1ccc(NC(=O)C2=CC(c3ccc(C)cc3)=NS(=O)(=O)N2C)cc1 | 12.6 µM [falling, partial curve, poor fit] | –
S=C(NCc1ccc(Cl)cc1Cl)NC1CCCCC1 | 23.1 µM [falling, single point] | –
O=c1oc(-c2ccccc2)nc2sc3c(c12)CCC3 | 6.51 µM [falling, partial curve] | –
COc1ccccc1OCC(=O)NCC1CCCCC1 | 4.61 µM [rising, partial curve] | –
Cc1ccccc1CC(=O)Nc1cccc(S(=O)(=O)N2CCCC2)c1 | 4.61 µM [rising, single point] | –
O=C(NC(=S)Nc1ncccn1)c1ccc(Cl)cc1Cl | 2.51 µM [falling, full curve] | –
CC(=O)N(CCc1ccccc1C)Cc1cc2cc(C)ccc2[nH]c1=O | 14.1 µM [rising, single point] | –
C=CCn1c(C(c2ccccc2)c2ccccc2)n[nH]c1=S | – | 23.1 µM [falling, partial curve, poor fit]
CCN(C(=O)COC(=O)c1cccnc1Nc1cccc(C(F)(F)F)c1)C1CCS(=O)(=O)C1 (configuration not stated) | 10.3 µM [falling, partial curve, poor fit] | –
O=C(NCc1ccccn1)c1cc2cc(Br)ccc2oc1=O | 16.4 µM [rising, single point] | –
O=C(Nc1nccs1)c1ccc(NC(=O)c2ccco2)cc1 | 16.4 µM [falling, partial curve, poor fit] | –
O=C1C2C3C=CC(C3=C(c3ccccc3)c3ccccc3)C2C(=O)N1CCO (configuration not stated) | 20.6 µM [rising, single point] | –
CCOc1cc(/C=N/Nc2nnc(C)n2N)ccc1OC(C)=O | 35.5 µM [falling, single point] | –
O=C(NCc1ccc2c(c1)OCO2)C1CCN(c2ccc(S(=O)(=O)N3CCCC3)cc2)CC1 | 23.1 µM [falling, partial curve, poor fit] | –
CC(C)c1cc(=O)oc2c3c4c(cc12)CCCN4CCC3 | 35.5 µM [falling, single point] | –
O=C(COC(=O)Cc1ccc(S(=O)(=O)N2CCOCC2)s1)Nc1ccc([N+](=O)[O-])cc1 | 2.31 µM [rising, full curve] | –
CCc1ccc(OCC(=O)Nc2ccc(-c3cc4ccccc4oc3=O)c(OC)c2)cc1 | – | 5.17 µM [falling, partial curve, poor fit]
